Assay results: PubChem BioAssay AID485353 (National Center for Advancing Translational Sciences (NCATS), 2010)
Hit rate of the full screen: of about 330,000 compounds, about 610 (0.18%) were called active. The shares of active, inactive and inconclusive entries below differ from those in the screen. The call rests on the fitted dose curve. A potency beside an inconclusive call is a rough fit, not a confirmed value.

experiment: qHTS of Yeast-based Assay for SARS-CoV PLP; further: nearly all actives have a fitted effect of over 55% in size; details: S. cerevisiae expressing SARS-CoV PLpro; Potency: growth rescue; series mostly up to 32.9 µM
Potency means the concentration at half of the fitted maximal effect.

Row | SMILES | Potency
1 | CCn1c(SCC(=O)O)nnc1-c1ccccc1 | inconclusive: 2.51 µM [activator, partial curve]
2 | N=c1c2c(-c3ccccc3)c(-c3ccccc3)oc2ncn1Cc1ccco1 | inconclusive: 4.47 µM [activator, single point]
3 | Cc1cccc(C)c1NC(=O)N1CCC(C(=O)c2ccc(F)cc2)CC1 | inactive
4 | Cc1cc(C)n(-c2cc(-n3nc(C)cc3C)ncn2)n1 | inconclusive: 12.6 µM [activator, single point]
5 | CC(=O)c1cccc(NC(=O)/C(=C\c2cccnc2)NC(=O)c2ccco2)c1 | inactive
6 | CC1CCCC(C)N1CC(O)COc1c(F)cc(Br)cc1F (stereo not drawn) | inactive
7 | COc1ccc(Cl)cc1NC(=O)CSc1nnc(CNC(=O)c2cccs2)o1 | inconclusive: 20 µM [activator, single point]
8 | O=C(Cn1nc(-c2ccccc2Cl)ccc1=O)Nc1ccc(Br)cc1 | inactive
9 | CCC(=O)N(C)CCc1cc2c(c(OC)c1/C=N/NC(=O)c1ccccc1O)OCO2 | inconclusive: 20 µM [activator, single point]
10 | CN1CCN(C(=O)/C=C/c2ccc3c(c2)OCO3)CC1 | inconclusive: 4.47 µM [activator, partial curve]
11 | C=CCNC(=O)CN1C(=O)C2C3c4ccccc4C(c4ccccc43)C2C1=O (stereo not drawn) | inactive
12 | COc1ccc(C(=O)NCC(=O)N2CCN(C(=O)c3ccco3)CC2)cc1 | inconclusive: 2.82 µM [activator, single point]
13 | COc1cc(C(c2sc3nc(C)nn3c2O)N2CC(C)CC(C)C2)cc(OC)c1OC (stereo not drawn) | inconclusive: 10 µM [activator, single point]
14 | O=S(=O)(Nc1ccccc1)c1cccc2nsnc12 | inconclusive: 2.82 µM [activator, single point]
15 | CCN1CCN(CCCNC(=O)c2ccc3c(c2)NC(=O)c2ccccc2S3)CC1 | inactive
16 | O=S(=O)(Nc1ccc(N2CCOCC2)cc1)c1cccs1 | inconclusive: 3.98 µM [activator, single point]
17 | Cc1csc(CNC(=O)C2CCC(=O)N(CCCc3ccccc3)C2)n1 (stereo not drawn) | inactive
18 | COC(=O)C1=C(C)NC(=O)C1(NS(=O)(=O)c1ccc(NC(C)=O)cc1)C(F)(F)F (stereo not drawn) | inconclusive: 0.398 µM [activator, full curve, poor fit]
19 | COc1ccc(CN2CCNC(=O)C2CC(=O)NC2CCOCC2)cc1C (stereo not drawn) | inconclusive: 20 µM [activator, single point]
20 | O=C(c1ccc(NS(=O)(=O)c2cccs2)cc1)N1CCOCC1 | inconclusive: 3.98 µM [activator, single point]
21 | Cc1n[nH]c(C)c1CCCCOc1ccccc1 | inconclusive: 10 µM [activator, single point]
22 | O=C(Nc1ccc(Cl)cc1)c1ccc(Br)cc1F | inactive
23 | Cc1cc(C(=O)Nc2cccnc2)on1 | inconclusive: 7.94 µM [activator, partial curve]

Row | SMILES | Potency
24 | CCOc1ccc(-c2nnc3ccc(SCC(=O)Nc4nc5ccccc5s4)nn23)cc1 | inconclusive: 20 µM [activator, single point]
25 | CC(C)N=C1SCC(C)(/C=N/O)S1 (stereo not drawn) | inconclusive: 12.6 µM [activator, partial curve]
26 | CN(c1cccc(NC(=O)c2cccc([N+](=O)[O-])c2)c1)S(C)(=O)=O | inconclusive: 0.398 µM [activator, full curve, poor fit]
27 | CCCC1C2CN(C(C)C)CC=C2C(C#N)=C(N)C1(C#N)C#N (stereo not drawn) | inactive
28 | O=C(CNC(=O)c1ccccc1)OC(C(=O)c1ccccc1)c1ccccc1 (stereo not drawn) | inconclusive: 1.12 µM [activator, full curve, poor fit]
29 | COC(=O)c1ccc2c(=O)n(NC(=O)C(c3ccccc3)c3ccccc3)c(=S)[nH]c2c1 | inconclusive: 20 µM [activator, single point]
30 | CC1(C)CC(c2csc(N)n2)CCO1 (stereo not drawn) | inconclusive: 3.98 µM [activator, single point]
31 | COc1ccc(C(=O)NCCS(=O)(=O)N2CCOCC2)cc1 | inconclusive: 3.55 µM [activator, single point]
32 | CCOC(=O)C1=C(C)OC(N)=C(C#N)C1c1ccc(OC)c(CSc2ccccn2)c1 (stereo not drawn) | inconclusive: 6.31 µM [activator, partial curve]
33 | CCOc1ccc(NC(=O)CC2C(=O)N(C)C(=S)N2Cc2ccco2)cc1 (stereo not drawn) | inconclusive: 22.4 µM [activator, single point]
34 | CC(C)(C)NC(=O)C12CC3CC(CC(Cl)(C3)C1)C2 | inconclusive: 0.355 µM [activator, full curve, poor fit]
35 | O=C(Nc1nc2ccccc2[nH]1)NC1CCCCC1 | inconclusive: 3.98 µM [activator, full curve]
36 | O=C(c1nc2ccccn2c1CN1CCCC(O)C1)N1CCN(C2CCCCC2)CC1 (stereo not drawn) | inconclusive: 2.82 µM [activator, single point]
37 | COc1ccc(OC)c(CNC(=O)CCn2nc(C)c3c(C)n(-c4ccccc4)nc3c2=O)c1 | inconclusive: 22.4 µM [activator, single point]
38 | CC1=NN(c2ccccc2)C(=O)/C1=C/c1ccc[nH]1 | inactive
39 | CCOc1cc([N+](=O)[O-])cc(/C=N/NC(=O)c2c(-c3ccccc3)noc2C)c1O | inconclusive: 11.2 µM [activator, partial curve]
40 | COC(=O)C1=C(C)n2cnnc2NC1c1ccc(Cl)cc1 (stereo not drawn) | inconclusive: 15.8 µM [activator, partial curve]
41 | Cc1cc(=O)n2c3ccccc3n(CC(O)CN3CCC(C)CC3)c2c1C#N (stereo not drawn) | inconclusive: 22.4 µM [activator, single point]
42 | Cc1ccc(-c2nc3cccnc3s2)cc1NS(C)(=O)=O | inactive
43 | Cc1c(/C=C/C(=O)c2cccs2)cnn1C | inactive
44 | Cc1ccc(S(=O)(=O)N2CCC(C(=O)OC(C)C(=O)NC3CCCCC3C)CC2)cc1C (stereo not drawn) | inconclusive: 20 µM [activator, single point]
45 | O=C(NCc1ccccc1)c1ccc(CS(=O)(=O)Cc2ccc(F)cc2)o1 | inconclusive: 3.16 µM [activator, single point]
46 | COc1ccc(NC(=O)Cc2ccccc2)cc1 | inactive

Row | SMILES | Potency
47 | CCOC(=O)C(CO)(NC(C)=O)C(=O)OCC | inconclusive: 20 µM [activator, single point]
48 | Cc1ccc(CNC(=O)C(=O)c2cn(CC(=O)N3CCOCC3)c3ccccc23)cc1 | inconclusive: 3.98 µM [activator, full curve, poor fit]
49 | COc1ccc(C(=O)N/N=C\c2coc3ccc(Cl)cc3c2=O)cc1 | inconclusive: 3.16 µM [activator, partial curve]
50 | CCOC(=O)[C@H]1[C@H]2COc3ccc(Cl)cc3[C@@H]2N2C(=O)CN(Cc3ccc(OC)cc3)C(=O)[C@@]12C | inconclusive: 3.98 µM [activator, full curve]
51 | Cc1ccc(C(=O)N/C(=C\c2cn(S(=O)(=O)N(C)C)c3ccccc23)C(=O)NCCCN2CCOCC2)cc1 | inconclusive: 3.16 µM [activator, full curve]
52 | Cc1ccc(S(=O)(=O)NCc2cccnc2)c(C)c1 | inconclusive: 2.82 µM [activator, single point]
53 | Cc1cc(C(=O)CSc2n[nH]c(N)n2)c(C)n1-c1cccc(F)c1 | inactive
54 | Cc1ccc(C(=O)N/C(=C\c2sccc2C)C(=O)NCc2ccncc2)cc1 | inconclusive: 3.16 µM [activator, single point]
55 | Fc1ccc(CNC(=S)Nc2cccc(Cl)c2)cc1 | inactive
56 | CC1CCCN(C(=O)c2ccc(CNc3c(N4CCCCC4)c(=O)c3=O)cc2)C1 (stereo not drawn) | inactive
57 | Cc1cccc(CCNC(=O)CCS(=O)(=O)c2ccc3nc(C)sc3c2)c1 | inconclusive: 3.16 µM [activator, single point]
58 | CC(C)c1ccc(S(=O)(=O)N2CCN(C(=O)CN3C(=O)NC4(CCCC4)C3=O)CC2)cc1 | inconclusive: 3.98 µM [activator, single point]
59 | Cc1cc2occ(CC(=O)O)c2cc1C | inconclusive: 4.47 µM [activator, single point]
60 | CCOC(=O)c1ccccc1NC(=S)N1CCCCC1 | inconclusive: 17.8 µM [activator, single point]
61 | CC(=O)Nc1ccc(NS(=O)(=O)c2ccc3c(c2)n(C)c(=O)n3C)cc1 | inconclusive: 3.55 µM [activator, single point]
62 | Cc1cc(C)cc(OC(=O)CCN2C(=O)c3ccccc3C2=O)c1 | inconclusive: 12.6 µM [activator, partial curve]
63 | CC(C)C(=O)N[C@@H]1c2ccccc2CC[C@@H]1OCc1ccccc1 | inconclusive: 2 µM [activator, partial curve]
64 | CC(C)C[C@H](NC(=O)N1CCn2c1nc1ccccc12)C(=O)NCC1CCCO1 (stereo partly drawn) | inconclusive: 17.8 µM [activator, single point]
65 | O=C(O)COc1ccccc1C(Nc1cccnc1)c1cc(Cl)c2cccnc2c1O (stereo not drawn) | inconclusive: 14.1 µM [activator, partial curve]
66 | O=C(COC(=O)C1CC1)NCc1ccccc1Cl | inconclusive: 5.01 µM [activator, partial curve, poor fit]
67 | CCOc1ccc(C(=O)Nc2ccc3c(c2)OCO3)cc1OCC | inactive
68 | Cc1ccc(S(=O)(=O)N2CCN(S(=O)(=O)c3ccccc3Br)C2=O)cc1 | inconclusive: 0.282 µM [activator, partial curve, poor fit]

3 compounds already listed, arranged by molecular weight, ascending:
Row | SMILES | Potency
59 | Cc1cc2occ(CC(=O)O)c2cc1C | inconclusive: 4.47 µM [activator, single point]
61 | CC(=O)Nc1ccc(NS(=O)(=O)c2ccc3c(c2)n(C)c(=O)n3C)cc1 | inconclusive: 3.55 µM [activator, single point]
56 | CC1CCCN(C(=O)c2ccc(CNc3c(N4CCCCC4)c(=O)c3=O)cc2)C1 (stereo not drawn) | inactive
